According to article PMC2820552:
These are yes or no findings as the source states them, for the method shown. Binding seen in cells or lysates may run through a third protein. Some entries that bind do so weakly or less than the wild type. Values belong to the substance of their own block, whether it stands above or below them.

Sequences of proteins named here, by UniProt entry; tags and fusion partners are left off. A change or cut given only in a name is not applied to a line headed by its entry. A line that says so, or that is headed by a name, gives the form on record, which may keep a tag or linker.
UniProt Q8N122: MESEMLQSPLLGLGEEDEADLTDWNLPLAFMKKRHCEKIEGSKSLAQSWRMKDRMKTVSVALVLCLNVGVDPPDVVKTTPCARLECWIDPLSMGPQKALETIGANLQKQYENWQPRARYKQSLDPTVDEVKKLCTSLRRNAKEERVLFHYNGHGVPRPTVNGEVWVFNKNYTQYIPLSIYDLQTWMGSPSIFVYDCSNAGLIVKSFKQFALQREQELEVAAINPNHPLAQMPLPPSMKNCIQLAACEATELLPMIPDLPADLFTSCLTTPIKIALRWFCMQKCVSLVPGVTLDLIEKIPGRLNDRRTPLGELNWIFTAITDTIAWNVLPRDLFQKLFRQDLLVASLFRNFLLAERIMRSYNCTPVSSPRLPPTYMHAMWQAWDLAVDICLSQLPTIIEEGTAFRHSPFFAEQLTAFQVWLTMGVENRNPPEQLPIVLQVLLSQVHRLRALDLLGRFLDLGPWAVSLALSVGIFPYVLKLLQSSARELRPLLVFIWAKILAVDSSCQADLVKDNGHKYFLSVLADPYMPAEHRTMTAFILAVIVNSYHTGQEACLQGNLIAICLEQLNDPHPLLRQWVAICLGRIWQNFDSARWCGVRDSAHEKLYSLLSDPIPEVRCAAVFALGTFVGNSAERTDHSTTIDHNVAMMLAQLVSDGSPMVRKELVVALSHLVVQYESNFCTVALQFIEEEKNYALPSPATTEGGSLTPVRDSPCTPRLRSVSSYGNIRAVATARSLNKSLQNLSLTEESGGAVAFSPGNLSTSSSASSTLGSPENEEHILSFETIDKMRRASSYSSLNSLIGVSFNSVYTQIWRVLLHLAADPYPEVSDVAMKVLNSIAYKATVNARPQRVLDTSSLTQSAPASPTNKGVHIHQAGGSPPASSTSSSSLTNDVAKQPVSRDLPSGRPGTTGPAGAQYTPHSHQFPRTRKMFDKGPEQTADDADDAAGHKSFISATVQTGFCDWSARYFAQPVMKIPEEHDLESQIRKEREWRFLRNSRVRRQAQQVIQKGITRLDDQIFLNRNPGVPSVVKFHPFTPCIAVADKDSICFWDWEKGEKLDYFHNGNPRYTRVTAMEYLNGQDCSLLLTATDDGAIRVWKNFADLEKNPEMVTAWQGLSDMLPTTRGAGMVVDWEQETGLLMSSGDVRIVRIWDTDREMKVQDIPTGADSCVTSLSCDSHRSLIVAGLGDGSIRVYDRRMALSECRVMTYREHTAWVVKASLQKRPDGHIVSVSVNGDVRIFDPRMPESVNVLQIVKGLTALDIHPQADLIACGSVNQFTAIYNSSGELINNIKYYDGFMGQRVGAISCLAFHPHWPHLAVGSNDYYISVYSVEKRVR
Myc-raptor Ser696/Thr706/Ser711AAA (3A), transiently expressed in HEK293T cells (Q8N122, form named): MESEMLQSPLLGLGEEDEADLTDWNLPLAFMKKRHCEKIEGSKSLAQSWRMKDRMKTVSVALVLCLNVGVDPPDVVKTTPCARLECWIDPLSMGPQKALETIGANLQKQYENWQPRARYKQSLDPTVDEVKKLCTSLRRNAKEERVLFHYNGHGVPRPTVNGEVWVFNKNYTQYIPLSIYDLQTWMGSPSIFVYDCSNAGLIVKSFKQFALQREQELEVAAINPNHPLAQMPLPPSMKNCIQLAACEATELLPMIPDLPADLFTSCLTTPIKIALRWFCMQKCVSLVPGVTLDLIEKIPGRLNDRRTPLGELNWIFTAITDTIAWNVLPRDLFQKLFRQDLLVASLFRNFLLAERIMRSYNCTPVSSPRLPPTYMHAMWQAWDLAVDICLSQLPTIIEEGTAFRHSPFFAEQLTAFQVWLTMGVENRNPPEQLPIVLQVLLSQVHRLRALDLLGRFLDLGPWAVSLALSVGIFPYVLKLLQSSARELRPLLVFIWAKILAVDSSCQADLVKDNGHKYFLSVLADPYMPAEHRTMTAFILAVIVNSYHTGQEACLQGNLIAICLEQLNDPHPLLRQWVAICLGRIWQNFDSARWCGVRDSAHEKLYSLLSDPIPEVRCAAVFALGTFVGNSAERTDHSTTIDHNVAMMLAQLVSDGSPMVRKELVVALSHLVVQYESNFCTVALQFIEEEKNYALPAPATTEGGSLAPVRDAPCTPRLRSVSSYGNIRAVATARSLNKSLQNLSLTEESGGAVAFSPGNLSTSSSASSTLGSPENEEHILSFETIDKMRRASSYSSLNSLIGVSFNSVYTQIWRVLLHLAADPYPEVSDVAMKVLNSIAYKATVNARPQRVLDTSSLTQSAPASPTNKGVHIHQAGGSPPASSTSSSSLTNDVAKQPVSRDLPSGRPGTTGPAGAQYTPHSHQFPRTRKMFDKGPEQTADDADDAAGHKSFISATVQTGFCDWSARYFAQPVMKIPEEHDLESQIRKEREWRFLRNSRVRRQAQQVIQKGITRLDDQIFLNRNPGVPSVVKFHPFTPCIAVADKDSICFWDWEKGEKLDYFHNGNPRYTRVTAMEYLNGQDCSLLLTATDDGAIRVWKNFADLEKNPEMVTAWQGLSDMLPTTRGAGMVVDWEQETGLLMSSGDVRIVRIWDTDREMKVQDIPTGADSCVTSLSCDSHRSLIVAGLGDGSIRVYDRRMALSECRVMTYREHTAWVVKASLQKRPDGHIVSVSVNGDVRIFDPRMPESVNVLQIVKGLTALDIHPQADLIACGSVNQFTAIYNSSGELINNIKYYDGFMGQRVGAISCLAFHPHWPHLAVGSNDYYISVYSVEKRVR
UniProt P23443: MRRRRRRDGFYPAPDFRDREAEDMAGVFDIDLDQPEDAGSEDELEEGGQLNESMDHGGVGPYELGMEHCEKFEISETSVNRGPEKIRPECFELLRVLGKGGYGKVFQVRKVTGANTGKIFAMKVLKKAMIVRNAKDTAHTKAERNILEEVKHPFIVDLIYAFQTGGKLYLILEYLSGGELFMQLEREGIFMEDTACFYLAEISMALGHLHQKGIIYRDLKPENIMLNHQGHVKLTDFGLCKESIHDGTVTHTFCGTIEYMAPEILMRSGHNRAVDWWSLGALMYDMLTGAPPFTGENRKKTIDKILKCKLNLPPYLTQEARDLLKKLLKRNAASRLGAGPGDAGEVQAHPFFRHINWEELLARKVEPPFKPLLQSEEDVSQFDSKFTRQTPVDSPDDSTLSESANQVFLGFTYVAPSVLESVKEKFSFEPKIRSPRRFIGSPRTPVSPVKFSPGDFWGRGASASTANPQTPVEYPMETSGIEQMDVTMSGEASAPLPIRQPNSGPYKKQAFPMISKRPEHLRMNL
UniProt P14635: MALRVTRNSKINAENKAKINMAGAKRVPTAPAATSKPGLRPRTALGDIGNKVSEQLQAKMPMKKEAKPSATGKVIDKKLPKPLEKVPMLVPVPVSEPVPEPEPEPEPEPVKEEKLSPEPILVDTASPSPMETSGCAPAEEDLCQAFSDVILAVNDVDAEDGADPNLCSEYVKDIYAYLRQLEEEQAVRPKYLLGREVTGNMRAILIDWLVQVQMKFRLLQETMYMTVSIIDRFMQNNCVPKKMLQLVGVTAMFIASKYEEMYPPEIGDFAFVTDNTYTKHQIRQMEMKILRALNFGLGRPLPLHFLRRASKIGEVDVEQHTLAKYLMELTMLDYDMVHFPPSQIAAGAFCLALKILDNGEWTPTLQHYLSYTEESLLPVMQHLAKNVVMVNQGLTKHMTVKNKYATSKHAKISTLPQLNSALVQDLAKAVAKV

Experiments:
[1] = biological target: myc-wt raptor, stably expressed in Hela cells with knockdown of endogenous raptor (human) (UniProt Q8N122); assay: co-IP; Hela cells stably expressing myc-raptor (wt or 3A) with knockdown of endogenous raptor; anti-myc immunoprecipitation, blot for endogenous proteins; lysis buffer 2 (40 mM HEPES pH 7.5, 150 mM NaCl, 0.3% CHAPS); cells with or without taxol (16 h) or nocodazole (16 h), then Torin1 or …
[2] = biological target: Flag-S6K (UniProt P23443); assay: co-IP; reciprocal: HEK293T cells transiently co-transfected with myc-raptor (wt or 3A) and Flag-S6K or Flag-4EBP1; anti-Flag immunoprecipitation, blot for raptor; lysis buffer 2 (0.3% CHAPS); cells with or without nocodazole for 16 h
[3] = biological target: Myc-raptor (wild-type), transiently expressed in HEK293T cells (human) (UniProt Q8N122); assay: co-IP; HEK293T cells transiently co-transfected; anti-myc immunoprecipitation of myc-raptor (wt or 3A), blots for Flag and HA tags; lysis buffer 2 (40 mM HEPES pH 7.5, 150 mM NaCl, 0.3% CHAPS); cells with or without nocodazole for 16 h
[4] = biological target: Myc-raptor Ser696/Thr706/Ser711AAA (3A), transiently expressed in HEK293T cells (human) (UniProt Q8N122); assay: as above

binding [1]: binds
Substance: endogenous cyclin B (from UniProt P14635 1-433)

binding [2]: binds
Substance: Myc-raptor Ser696/Thr706/Ser711AAA (3A), transiently expressed in HEK293T cells (from UniProt Q8N122 1-1335)

binding [3]: binds | binding [4]: binds
Substance: Flag-S6K (from UniProt P23443 1-525)

binding [2]: binds
Substance: Myc-raptor (wild-type), transiently expressed in HEK293T cells (from UniProt Q8N122 1-1335)
